From publication doi:10.1101/2021.05.26.445723 (bioRxiv, 2021)
Results are given in words; binding and its absence hold for the method and conditions named. For some of these results: In cells and extracts the contact can be indirect. Some results given as binding are weak or reduced against the parent protein; the word gives no strength. Tags and fused reporters may be left off the sequences shown. Blank lines part the entries; values can stand above or below the molecule they belong to.

By UniProt entry, the sequences of proteins in these tests, tags left out. Where a name states a change or a piece, a line headed by the entry shows the natural chain unless it says otherwise.
UniProt P06701: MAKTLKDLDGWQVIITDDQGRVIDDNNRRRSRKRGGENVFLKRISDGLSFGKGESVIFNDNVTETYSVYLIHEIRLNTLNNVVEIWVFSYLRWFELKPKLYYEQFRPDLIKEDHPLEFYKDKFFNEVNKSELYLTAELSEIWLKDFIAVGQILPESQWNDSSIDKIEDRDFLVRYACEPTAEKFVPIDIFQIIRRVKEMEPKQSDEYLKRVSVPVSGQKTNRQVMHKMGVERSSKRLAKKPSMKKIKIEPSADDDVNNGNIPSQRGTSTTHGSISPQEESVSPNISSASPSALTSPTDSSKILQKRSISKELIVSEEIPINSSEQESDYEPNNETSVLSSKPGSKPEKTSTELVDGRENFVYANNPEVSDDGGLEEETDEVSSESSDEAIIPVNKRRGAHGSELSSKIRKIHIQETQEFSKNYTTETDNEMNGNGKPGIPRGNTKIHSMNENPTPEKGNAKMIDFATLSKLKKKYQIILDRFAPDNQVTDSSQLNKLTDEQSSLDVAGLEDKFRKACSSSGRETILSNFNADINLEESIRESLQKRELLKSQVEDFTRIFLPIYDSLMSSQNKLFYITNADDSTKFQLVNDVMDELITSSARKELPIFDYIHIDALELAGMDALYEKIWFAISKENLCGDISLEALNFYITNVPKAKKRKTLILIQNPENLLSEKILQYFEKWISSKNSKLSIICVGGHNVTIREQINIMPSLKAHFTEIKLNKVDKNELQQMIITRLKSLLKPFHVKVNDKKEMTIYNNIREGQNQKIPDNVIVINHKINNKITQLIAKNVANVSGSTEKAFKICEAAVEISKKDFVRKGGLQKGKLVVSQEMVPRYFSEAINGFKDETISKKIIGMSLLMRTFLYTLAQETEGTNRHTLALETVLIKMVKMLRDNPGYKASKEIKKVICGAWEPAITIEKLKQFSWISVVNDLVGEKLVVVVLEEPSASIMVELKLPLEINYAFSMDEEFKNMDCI

Legend:
[1] = target: T1, LexA-BD-SAE2^C (S. cerevisiae) (UniProt P46946); assay: two-hybrid
T1 sequence: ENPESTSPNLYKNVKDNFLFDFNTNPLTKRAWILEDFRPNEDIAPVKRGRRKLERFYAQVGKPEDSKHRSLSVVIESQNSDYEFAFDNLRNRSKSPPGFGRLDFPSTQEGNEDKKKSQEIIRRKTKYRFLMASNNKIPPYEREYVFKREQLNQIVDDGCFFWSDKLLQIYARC

[2] = target: T2, GAL4-BD-Sae2^C (S. cerevisiae) (UniProt P46946); assay: two-hybrid
T2 sequence: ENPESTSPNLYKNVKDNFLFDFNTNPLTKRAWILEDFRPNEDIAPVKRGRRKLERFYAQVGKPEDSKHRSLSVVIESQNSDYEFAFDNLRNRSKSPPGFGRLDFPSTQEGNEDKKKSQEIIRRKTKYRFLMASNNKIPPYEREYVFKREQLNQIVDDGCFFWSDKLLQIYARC

[3] = target: T3, Sae2-GFP (S. cerevisiae) (UniProt P46946); assay: co-IP
T3 sequence: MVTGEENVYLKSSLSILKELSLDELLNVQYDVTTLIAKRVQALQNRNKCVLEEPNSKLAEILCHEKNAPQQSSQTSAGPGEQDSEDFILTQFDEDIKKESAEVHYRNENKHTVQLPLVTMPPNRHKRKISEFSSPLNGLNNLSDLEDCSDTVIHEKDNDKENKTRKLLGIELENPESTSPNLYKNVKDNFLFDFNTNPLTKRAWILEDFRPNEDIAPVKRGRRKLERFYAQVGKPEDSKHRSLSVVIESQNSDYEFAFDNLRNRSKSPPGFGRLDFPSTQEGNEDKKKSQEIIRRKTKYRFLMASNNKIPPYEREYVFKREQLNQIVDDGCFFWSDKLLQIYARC

[4] = target: GAL4-BD-Sir3 (full length) (S. cerevisiae) (UniProt P06701); assay: two-hybrid

binding [3]: binds
Molecule: Sir3 (from UniProt P06701 1-978)

binding [4]: binds
B1: GAL4-AD-Sae2 (full length) (protein, UniProt P46946 1-345)
chain: MVTGEENVYLKSSLSILKELSLDELLNVQYDVTTLIAKRVQALQNRNKCVLEEPNSKLAEILCHEKNAPQQSSQTSAGPGEQDSEDFILTQFDEDIKKESAEVHYRNENKHTVQLPLVTMPPNRHKRKISEFSSPLNGLNNLSDLEDCSDTVIHEKDNDKENKTRKLLGIELENPESTSPNLYKNVKDNFLFDFNTNPLTKRAWILEDFRPNEDIAPVKRGRRKLERFYAQVGKPEDSKHRSLSVVIESQNSDYEFAFDNLRNRSKSPPGFGRLDFPSTQEGNEDKKKSQEIIRRKTKYRFLMASNNKIPPYEREYVFKREQLNQIVDDGCFFWSDKLLQIYARC

Continued, molecule first:

Molecule: GAD-SIR3^464-728 (from UniProt P06701 464-728) (domain or fragment)
binding [1]: binds

Molecule: GAL4-AD-Sir3^SaID (from UniProt P06701 531-723) (domain or fragment)
binding [2]: binds
